# Measured values from patent US9598459B2, “Pharmaceutical compositions and methods” (priority 2015, dated 2017).
# System: cellular ribosomal RNA (rRNA) synthesis
# Assay: Cellular ribosomal RNA synthesis in HCV replicon cells (TaqMan RT-qPCR)
# Assay type: cell-based
# Settings: 10 μM
row,SMILES,TaqMan RT-qPCR threshold cycle value difference (ΔCT) of cellular ribosomal RNA (rRNA) synthesis
1,"C[C@@]1(O)[C@H](O)[C@@H](CO)O[C@H]1n1ccc(N)nc1=O [2′-C-methylcytidine (RS-446), 2′-C-methylcytidine, reference compound]",0.54
2,"CC#C[C@]1(O)CC[C@H]2[C@@H]3CCC4=CC(=O)CCC4=C3[C@@H](c3ccc4c(c3)OCO4)C[C@@]21C [PT150, (11β,17β)-11-(1,3-benzodioxol-5-yl)-17-hydroxy-17-(1-propynyl)-estra-4,9-dien-3-one]",−0.48
3,"CC#CC1(O)CCC2C3CCC4=CC(=NNC(N)=S)CCC4=C3C(c3ccc4c(c3)OCO4)CC21C.CC#CC1(O)CCC2C3CCC4=CC(=O)CCC4=C3C(c3ccc4c(c3)OCO4)CC21C.CC(C)=O.CCO.O (stereo not drawn) [PT155, ⅓ (11β,17β)-17-Hydroxy-11-[3,4-(methylenedioxy)phenyl]-17-(1-propyn-1-yl)estra-4,9-dien-3-one (ORG34517)×(2EZ)-2-{(11β,17β)-17-hydroxy-11-[3,4-(methylenedioxy)phenyl]-17-(1-propyn-1-yl)estra-4,9-dien-3-ylidene}hydrazinecarbothioamide [71.8% (E), 28.2% (Z)] hemihydrate×¾% acetone× ⅛ ethanol]",−0.19
